This is one part of the list.
compound: C[C@@H](Oc1cc(-c2cnn(C3CCNCC3)c2)cnc1N)c1c(Cl)ccc(F)c1Cl [crizotinib]; assay: log2 fold change, soluble protein after heating vs DMSO (PISA); higher = thermal stabilisation; K562 cells, 10 uM, 30 min; active = over 0.2 and 3.5 SD of the protein, either way, in both replicates (recomputed)
Procedure, shortened: (§1)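 For each measurement, 10 μM compound was applied for 30 min to K562 cells at 2×10^6 cells/mL. Aliquots were heated for 3 min across 48°C-58°C, pooled, and extracted in PBS with 0.5% NP-40 at 4°C; the supernatant after 21,000xg for 90 min was soluble protein. This was quantified by TMTpro 16plex LC-MS/MS with channel sums equalised, and thermal stability was reported relative to control samples from duplicates, on a log2 fold-change scale.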

The chains behind the UniProt entries cited, without tags or fusion partners. Where a name states a change or a piece, a line headed by the entry shows the natural chain unless it says otherwise.
UniProt Q9Y484: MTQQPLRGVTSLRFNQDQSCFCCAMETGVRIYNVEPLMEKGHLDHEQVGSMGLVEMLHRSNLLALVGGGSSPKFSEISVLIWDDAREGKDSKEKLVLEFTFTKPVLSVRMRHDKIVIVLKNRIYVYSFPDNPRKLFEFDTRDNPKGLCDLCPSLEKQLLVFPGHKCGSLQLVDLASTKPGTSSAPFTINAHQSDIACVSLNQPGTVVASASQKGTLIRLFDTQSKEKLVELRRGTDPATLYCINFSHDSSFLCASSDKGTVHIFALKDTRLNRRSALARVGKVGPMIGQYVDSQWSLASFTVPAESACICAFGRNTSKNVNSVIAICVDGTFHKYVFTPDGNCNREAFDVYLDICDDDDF
UniProt P04004: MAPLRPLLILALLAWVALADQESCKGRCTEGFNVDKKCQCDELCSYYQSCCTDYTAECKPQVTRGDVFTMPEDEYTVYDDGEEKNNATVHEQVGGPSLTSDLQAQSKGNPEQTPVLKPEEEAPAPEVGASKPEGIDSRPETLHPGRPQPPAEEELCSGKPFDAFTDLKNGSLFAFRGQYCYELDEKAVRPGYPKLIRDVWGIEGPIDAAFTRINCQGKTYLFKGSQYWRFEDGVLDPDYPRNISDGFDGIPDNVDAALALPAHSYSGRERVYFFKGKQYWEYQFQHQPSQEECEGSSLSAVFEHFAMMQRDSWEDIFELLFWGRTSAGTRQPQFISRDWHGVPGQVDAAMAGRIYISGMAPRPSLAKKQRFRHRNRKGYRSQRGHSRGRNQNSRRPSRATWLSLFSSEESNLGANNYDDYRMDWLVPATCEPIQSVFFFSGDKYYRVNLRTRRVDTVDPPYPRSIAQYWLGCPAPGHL
UniProt O75351, whole entry, looked up: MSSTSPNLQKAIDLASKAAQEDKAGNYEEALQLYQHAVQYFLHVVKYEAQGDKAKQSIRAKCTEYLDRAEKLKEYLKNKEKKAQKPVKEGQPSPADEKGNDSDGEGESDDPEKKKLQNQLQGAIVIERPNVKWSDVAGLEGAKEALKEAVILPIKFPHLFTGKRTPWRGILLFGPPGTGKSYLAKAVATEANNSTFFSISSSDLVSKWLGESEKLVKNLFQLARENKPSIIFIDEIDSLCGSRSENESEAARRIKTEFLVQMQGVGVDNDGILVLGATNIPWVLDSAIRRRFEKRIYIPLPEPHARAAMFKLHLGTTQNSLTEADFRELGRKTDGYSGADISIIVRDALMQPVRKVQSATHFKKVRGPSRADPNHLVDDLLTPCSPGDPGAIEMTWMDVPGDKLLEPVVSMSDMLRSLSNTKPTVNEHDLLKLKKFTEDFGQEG
UniProt O00534: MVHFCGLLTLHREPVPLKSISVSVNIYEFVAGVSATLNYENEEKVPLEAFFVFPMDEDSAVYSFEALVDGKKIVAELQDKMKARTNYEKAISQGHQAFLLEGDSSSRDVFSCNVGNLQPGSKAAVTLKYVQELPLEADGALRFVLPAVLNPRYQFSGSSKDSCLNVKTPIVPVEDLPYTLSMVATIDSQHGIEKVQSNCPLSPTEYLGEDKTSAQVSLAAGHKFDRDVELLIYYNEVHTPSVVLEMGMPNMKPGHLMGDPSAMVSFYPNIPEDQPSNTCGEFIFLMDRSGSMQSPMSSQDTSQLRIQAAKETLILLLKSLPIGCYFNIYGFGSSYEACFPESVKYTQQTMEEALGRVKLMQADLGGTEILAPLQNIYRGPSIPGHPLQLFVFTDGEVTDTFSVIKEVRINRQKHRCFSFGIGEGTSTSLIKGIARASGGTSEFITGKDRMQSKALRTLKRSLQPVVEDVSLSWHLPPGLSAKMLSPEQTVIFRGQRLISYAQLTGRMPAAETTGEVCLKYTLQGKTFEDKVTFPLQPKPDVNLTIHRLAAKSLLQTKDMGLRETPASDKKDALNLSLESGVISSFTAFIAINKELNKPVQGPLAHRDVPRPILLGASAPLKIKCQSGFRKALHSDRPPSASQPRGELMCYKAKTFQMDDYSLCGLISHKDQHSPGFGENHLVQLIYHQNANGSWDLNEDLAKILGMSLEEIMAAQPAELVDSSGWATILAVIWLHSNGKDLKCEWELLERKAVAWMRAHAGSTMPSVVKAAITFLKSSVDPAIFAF
UniProt Q96EX3: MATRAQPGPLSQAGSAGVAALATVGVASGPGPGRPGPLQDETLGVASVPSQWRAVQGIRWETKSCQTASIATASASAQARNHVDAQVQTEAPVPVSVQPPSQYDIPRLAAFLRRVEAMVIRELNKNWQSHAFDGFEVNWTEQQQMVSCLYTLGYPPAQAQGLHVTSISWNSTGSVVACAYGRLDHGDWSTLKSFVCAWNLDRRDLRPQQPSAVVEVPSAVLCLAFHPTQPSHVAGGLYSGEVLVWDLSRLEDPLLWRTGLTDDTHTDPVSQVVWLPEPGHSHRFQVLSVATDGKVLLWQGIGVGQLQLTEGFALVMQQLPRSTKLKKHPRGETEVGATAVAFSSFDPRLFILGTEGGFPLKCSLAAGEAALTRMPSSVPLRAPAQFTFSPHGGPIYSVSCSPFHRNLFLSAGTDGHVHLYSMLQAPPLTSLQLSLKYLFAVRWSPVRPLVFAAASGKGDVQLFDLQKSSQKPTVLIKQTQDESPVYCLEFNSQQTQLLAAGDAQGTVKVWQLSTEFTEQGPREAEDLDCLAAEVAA
UniProt Q5MNZ9: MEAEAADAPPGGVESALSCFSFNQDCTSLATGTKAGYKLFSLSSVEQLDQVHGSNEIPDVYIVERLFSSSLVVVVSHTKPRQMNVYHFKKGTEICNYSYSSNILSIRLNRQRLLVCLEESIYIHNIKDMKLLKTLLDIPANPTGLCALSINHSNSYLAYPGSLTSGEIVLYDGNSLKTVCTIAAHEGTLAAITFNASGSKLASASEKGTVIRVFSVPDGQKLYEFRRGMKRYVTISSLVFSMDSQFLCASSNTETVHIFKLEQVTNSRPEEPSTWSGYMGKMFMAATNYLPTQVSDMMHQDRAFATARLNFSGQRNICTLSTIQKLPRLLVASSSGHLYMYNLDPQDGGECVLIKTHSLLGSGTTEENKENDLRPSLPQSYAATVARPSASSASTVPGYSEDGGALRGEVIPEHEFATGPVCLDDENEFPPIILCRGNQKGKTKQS
UniProt Q5JSH3: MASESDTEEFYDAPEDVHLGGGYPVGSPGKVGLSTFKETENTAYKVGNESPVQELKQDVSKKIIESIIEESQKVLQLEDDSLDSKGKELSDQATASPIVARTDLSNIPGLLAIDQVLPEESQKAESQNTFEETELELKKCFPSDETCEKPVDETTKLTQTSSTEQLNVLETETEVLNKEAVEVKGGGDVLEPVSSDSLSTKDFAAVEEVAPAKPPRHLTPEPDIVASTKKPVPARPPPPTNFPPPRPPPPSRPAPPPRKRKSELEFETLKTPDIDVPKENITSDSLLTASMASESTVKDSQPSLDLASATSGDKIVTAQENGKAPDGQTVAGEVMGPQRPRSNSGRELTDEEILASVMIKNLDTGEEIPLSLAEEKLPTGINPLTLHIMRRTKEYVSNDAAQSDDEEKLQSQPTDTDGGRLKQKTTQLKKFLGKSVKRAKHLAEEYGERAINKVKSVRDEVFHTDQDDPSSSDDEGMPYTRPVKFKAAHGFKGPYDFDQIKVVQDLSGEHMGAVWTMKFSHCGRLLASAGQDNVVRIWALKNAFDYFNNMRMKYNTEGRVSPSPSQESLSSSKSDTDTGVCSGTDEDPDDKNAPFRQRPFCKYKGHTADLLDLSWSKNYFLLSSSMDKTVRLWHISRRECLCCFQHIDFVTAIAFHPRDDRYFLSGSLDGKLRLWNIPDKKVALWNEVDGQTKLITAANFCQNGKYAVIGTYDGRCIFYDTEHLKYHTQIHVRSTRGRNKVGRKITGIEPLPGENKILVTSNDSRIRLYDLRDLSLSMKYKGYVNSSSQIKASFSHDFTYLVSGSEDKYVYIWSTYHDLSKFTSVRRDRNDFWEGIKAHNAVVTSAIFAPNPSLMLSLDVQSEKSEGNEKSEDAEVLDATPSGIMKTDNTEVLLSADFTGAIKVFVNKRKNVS
UniProt Q9H1Z4: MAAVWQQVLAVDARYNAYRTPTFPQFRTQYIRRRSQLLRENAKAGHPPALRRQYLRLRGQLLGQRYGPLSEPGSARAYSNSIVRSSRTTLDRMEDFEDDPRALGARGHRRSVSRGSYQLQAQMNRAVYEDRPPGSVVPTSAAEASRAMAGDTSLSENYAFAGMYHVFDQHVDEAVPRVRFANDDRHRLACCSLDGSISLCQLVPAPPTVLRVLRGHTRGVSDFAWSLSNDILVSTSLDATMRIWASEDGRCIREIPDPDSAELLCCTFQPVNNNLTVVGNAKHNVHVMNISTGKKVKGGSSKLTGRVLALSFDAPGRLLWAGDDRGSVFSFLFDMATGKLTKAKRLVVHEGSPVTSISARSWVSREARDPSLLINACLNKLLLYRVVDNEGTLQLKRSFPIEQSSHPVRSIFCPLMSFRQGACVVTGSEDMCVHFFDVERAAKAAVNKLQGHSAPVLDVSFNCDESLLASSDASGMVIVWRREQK
UniProt Q5MNZ6: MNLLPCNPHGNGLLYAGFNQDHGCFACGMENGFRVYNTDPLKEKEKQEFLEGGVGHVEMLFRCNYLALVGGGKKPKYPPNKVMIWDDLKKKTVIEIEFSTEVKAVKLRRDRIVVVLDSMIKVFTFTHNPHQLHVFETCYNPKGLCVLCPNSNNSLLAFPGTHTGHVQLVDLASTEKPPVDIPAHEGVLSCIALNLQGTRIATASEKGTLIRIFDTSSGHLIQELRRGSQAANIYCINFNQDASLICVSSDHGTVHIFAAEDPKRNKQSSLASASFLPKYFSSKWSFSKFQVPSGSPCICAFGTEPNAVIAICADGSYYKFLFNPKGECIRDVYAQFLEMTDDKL
UniProt Q96FK6: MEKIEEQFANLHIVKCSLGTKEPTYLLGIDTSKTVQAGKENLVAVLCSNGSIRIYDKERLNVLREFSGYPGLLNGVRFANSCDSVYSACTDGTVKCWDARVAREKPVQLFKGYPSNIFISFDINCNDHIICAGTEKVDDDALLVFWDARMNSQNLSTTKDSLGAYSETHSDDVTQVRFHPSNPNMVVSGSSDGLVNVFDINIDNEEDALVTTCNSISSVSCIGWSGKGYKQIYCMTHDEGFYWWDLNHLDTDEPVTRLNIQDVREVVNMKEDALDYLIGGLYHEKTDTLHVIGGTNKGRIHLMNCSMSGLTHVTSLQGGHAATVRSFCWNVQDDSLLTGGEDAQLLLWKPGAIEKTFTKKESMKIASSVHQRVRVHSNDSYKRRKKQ
UniProt Q9Y277: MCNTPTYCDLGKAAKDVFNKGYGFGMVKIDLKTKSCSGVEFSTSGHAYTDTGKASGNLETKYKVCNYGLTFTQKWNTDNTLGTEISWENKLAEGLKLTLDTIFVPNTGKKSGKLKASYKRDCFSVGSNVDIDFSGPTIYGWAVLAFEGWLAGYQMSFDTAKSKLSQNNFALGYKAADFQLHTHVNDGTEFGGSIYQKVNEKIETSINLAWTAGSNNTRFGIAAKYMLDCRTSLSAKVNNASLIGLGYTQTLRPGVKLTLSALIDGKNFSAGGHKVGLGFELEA
UniProt Q8TBZ3: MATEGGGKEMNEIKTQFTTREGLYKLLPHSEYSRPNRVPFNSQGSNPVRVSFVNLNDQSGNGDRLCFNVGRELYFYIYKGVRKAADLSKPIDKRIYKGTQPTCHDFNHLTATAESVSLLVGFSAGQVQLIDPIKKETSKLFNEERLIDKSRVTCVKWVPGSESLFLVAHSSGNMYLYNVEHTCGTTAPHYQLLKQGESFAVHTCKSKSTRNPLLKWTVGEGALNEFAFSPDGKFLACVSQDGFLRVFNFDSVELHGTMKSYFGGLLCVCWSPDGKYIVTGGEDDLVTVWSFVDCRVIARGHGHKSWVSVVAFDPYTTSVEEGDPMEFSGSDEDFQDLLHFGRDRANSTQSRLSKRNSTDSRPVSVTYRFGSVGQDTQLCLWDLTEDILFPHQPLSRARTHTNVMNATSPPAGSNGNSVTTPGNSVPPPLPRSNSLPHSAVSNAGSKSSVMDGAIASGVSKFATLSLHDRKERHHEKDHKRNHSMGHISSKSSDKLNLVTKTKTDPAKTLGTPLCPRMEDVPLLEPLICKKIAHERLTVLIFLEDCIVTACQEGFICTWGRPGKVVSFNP
UniProt A6NGB9: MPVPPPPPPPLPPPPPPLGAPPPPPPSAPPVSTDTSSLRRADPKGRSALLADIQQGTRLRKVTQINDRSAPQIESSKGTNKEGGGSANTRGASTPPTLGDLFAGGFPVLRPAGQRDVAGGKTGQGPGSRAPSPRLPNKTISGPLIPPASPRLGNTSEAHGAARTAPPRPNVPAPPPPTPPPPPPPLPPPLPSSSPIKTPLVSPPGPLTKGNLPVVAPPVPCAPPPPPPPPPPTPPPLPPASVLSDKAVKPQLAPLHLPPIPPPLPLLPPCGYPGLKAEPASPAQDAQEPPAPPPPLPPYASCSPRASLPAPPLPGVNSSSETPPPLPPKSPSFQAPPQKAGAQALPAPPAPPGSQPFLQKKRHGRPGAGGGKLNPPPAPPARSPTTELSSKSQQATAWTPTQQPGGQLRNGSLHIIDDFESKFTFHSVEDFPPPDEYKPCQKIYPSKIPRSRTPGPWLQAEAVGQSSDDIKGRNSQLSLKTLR

log2 fold change, inactive:
WRAP53 (UniProt Q9BUR4) -0.096
WDR45 (UniProt Q9Y484) -0.018
VTN (UniProt P04004) -0.078
VPS4B (UniProt O75351) -0.056
VWA5A (UniProt O00534) 0.145
WIZ (UniProt O95785) -0.147
VEZF1 (UniProt Q14119) 0.169
WDR34 (UniProt Q96EX3) -0.062
WDR70 (UniProt Q9NW82) 0.062
WIPI1 (UniProt Q5MNZ9) 0.099

compound: C[C@@H]1COCCN1C2=NC(=NC(=C2)C3(CC3)S(=O)(=O)C)C4=C5C=CNC5=CC=C4; assay: as above
Procedure, shortened: as §1

log2 fold change, inactive:
WDR61 (UniProt Q9GZS3) 0.071
WDR36 (UniProt Q8NI36) -0.109
WDR44 (UniProt Q5JSH3) 0.024
WDR13 (UniProt Q9H1Z4) 0.073
WASL (UniProt O00401) 0.079
WDR74 (UniProt Q6RFH5) -0.296
WASHC2A (UniProt Q641Q2) -0.033
WARS (UniProt P23381) 0.029
WASHC4 (UniProt Q2M389) -0.14
WDFY1 (UniProt Q8IWB7) 0.052
VPS13C (UniProt Q709C8) 0.046
WBP11 (UniProt Q9Y2W2) -0.038
WDR45B (UniProt Q5MNZ6) -0.05
VPS35 (UniProt Q96QK1) 0.092
WDR77 (UniProt Q9BQA1) 0.007
WDR5 (UniProt P61964) -0.207
WASF2 (UniProt Q9Y6W5) -0.122
VRK3 (UniProt Q8IV63) 0.21
WDR89 (UniProt Q96FK6) 0.042
WRAP73 (UniProt Q9P2S5) -0.038
VDAC3 (UniProt Q9Y277) 0.012
WDR6 (UniProt Q9NNW5) -0.02
WDR20 isoform 7 (UniProt Q8TBZ3) -0.089
WIPF3 (UniProt A6NGB9) 0.022
WRAP53 (UniProt Q9BUR4) -0.111
WDR45 (UniProt Q9Y484) 0.04
VTN (UniProt P04004) -0.204
VPS4B (UniProt O75351) 0.087
VWA5A (UniProt O00534) 0.009
WIZ (UniProt O95785) 0.03
VEZF1 (UniProt Q14119) -0.324
WDR34 (UniProt Q96EX3) -0.014
WDR70 (UniProt Q9NW82) 0.093
WIPI1 (UniProt Q5MNZ9) -0.076

Reference: the supplement of paper PMC10849652
